# Source: the supplement of paper PMC11732987, “Enantioselective OTUD7B fragment discovery through chemoproteomics screening and high-throughput optimisation” (Communications Chemistry, 2025)
# Protein sequences, listed by entry. Tags and fused reporters are not part of them. Lines headed by an entry give the natural chain unless they say otherwise; changes in a name come on top. Residues count along the entry.
# UniProt O75182: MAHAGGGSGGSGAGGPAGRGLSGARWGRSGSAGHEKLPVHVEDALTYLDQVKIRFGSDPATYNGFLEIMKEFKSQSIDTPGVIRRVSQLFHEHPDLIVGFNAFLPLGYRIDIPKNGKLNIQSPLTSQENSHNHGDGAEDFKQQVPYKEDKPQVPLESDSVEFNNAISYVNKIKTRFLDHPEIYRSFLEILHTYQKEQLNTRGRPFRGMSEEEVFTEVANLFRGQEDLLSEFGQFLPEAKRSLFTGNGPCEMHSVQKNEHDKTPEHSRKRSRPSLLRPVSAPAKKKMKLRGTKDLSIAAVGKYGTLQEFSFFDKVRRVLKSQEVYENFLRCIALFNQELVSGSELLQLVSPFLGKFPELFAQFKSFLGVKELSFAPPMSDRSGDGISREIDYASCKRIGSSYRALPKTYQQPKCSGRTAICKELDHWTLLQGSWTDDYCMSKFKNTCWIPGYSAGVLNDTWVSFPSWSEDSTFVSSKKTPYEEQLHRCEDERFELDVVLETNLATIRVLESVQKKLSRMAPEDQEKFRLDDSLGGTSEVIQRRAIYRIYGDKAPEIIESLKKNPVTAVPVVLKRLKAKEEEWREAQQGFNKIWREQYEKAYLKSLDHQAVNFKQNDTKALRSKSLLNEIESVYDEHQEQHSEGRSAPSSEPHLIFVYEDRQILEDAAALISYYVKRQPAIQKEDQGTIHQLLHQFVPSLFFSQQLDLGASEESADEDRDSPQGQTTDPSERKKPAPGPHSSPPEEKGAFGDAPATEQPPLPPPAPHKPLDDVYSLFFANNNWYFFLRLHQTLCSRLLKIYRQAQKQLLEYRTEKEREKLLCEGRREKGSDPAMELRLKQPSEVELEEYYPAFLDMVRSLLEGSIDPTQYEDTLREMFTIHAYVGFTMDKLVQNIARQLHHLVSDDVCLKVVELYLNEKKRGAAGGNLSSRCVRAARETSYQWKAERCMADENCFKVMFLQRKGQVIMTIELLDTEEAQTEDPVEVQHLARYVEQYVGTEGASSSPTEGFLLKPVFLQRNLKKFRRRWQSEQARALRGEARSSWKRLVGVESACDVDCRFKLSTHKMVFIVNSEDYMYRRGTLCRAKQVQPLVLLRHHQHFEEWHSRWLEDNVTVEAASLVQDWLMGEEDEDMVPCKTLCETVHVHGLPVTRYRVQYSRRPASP
# UniProt Q9Y3L3: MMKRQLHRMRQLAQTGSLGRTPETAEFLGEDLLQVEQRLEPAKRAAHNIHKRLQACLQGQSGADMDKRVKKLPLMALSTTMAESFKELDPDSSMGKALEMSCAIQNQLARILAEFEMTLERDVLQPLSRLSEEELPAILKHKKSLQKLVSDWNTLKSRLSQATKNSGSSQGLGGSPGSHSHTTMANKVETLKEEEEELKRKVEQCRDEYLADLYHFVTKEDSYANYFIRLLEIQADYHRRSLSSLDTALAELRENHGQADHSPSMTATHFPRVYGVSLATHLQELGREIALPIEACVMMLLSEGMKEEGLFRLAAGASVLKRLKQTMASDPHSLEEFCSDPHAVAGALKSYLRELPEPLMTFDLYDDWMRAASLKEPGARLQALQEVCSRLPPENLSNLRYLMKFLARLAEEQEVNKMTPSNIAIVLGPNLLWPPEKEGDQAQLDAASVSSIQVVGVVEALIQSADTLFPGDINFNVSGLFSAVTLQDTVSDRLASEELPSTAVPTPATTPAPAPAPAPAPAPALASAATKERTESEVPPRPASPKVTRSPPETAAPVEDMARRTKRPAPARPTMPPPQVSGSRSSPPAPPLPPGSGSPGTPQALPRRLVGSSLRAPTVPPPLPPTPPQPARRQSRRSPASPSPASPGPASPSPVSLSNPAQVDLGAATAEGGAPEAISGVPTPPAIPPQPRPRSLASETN
# UniProt P29353: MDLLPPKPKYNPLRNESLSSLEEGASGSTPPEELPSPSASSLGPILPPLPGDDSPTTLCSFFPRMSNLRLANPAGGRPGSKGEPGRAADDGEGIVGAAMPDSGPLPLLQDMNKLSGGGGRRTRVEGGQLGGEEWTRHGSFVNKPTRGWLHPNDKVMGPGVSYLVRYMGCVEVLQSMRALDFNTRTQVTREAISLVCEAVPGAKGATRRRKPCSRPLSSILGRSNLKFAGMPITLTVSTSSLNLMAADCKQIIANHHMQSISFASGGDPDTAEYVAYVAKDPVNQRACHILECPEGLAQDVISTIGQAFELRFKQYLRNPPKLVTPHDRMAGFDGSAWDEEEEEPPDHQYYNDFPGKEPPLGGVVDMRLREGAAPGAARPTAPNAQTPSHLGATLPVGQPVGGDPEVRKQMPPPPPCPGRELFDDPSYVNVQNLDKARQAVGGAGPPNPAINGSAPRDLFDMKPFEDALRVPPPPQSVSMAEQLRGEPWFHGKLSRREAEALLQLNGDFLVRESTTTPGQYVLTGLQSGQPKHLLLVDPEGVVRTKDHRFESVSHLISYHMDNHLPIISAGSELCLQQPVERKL
# UniProt Q6IQ49, 292-311: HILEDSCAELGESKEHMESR
# UniProt Q96GA7: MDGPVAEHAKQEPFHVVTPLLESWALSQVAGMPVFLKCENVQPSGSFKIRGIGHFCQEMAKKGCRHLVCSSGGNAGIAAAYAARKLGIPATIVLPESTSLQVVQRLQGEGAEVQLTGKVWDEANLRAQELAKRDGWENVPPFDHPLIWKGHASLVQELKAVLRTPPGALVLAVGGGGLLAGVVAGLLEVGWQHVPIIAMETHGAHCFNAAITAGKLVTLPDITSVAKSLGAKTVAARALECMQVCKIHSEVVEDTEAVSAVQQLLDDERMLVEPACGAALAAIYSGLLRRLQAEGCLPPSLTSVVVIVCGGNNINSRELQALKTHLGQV
# UniProt Q9H7N4, 981-1000: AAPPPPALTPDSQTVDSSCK
# UniProt Q9P0V3: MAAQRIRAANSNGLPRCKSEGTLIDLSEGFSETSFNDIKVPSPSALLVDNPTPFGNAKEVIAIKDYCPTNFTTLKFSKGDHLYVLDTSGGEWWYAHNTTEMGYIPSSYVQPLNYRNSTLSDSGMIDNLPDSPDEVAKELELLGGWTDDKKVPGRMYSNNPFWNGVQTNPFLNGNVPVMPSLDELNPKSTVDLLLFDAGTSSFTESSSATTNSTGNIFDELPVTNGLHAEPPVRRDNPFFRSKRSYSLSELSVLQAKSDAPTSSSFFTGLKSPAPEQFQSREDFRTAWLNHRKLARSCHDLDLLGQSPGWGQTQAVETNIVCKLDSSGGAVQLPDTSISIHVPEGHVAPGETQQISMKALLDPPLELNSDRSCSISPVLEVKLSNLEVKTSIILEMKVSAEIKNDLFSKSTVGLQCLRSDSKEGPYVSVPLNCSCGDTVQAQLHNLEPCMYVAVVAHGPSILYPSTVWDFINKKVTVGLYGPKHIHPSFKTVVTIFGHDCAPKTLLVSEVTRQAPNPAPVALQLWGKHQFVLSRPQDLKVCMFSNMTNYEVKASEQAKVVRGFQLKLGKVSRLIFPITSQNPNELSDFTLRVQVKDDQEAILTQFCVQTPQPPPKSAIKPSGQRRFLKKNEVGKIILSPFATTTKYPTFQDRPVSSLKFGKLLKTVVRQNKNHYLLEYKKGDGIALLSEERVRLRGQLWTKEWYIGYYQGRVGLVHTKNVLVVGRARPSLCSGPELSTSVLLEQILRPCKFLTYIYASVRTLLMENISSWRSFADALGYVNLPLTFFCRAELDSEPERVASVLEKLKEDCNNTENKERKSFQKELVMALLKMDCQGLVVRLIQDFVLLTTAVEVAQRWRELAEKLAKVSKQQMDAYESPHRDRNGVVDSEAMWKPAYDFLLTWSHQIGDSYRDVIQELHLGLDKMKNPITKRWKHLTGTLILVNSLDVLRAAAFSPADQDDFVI
# UniProt P55735: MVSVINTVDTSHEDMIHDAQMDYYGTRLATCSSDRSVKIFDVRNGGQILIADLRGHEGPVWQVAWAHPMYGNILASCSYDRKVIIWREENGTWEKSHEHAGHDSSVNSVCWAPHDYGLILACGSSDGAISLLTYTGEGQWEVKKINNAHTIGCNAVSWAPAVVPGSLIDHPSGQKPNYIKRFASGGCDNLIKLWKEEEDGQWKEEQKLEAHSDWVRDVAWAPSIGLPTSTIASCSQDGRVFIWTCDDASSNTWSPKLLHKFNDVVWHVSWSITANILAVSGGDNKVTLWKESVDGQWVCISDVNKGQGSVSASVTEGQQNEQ
# UniProt Q12874: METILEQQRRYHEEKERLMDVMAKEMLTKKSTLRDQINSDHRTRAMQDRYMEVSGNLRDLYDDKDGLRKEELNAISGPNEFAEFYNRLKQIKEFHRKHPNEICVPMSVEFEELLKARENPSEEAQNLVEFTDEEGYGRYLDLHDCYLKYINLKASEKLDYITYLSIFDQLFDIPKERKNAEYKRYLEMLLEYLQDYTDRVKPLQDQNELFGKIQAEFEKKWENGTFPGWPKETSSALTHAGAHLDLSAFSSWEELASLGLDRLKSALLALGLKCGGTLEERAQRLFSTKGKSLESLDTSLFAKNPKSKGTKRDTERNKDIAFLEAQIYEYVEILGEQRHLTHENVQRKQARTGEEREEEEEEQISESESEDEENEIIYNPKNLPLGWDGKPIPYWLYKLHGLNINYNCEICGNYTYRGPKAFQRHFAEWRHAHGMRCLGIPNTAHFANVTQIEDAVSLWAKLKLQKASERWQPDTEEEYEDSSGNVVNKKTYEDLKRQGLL
# UniProt Q96LD8, 64-84: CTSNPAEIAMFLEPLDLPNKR
# UniProt Q9BQF6: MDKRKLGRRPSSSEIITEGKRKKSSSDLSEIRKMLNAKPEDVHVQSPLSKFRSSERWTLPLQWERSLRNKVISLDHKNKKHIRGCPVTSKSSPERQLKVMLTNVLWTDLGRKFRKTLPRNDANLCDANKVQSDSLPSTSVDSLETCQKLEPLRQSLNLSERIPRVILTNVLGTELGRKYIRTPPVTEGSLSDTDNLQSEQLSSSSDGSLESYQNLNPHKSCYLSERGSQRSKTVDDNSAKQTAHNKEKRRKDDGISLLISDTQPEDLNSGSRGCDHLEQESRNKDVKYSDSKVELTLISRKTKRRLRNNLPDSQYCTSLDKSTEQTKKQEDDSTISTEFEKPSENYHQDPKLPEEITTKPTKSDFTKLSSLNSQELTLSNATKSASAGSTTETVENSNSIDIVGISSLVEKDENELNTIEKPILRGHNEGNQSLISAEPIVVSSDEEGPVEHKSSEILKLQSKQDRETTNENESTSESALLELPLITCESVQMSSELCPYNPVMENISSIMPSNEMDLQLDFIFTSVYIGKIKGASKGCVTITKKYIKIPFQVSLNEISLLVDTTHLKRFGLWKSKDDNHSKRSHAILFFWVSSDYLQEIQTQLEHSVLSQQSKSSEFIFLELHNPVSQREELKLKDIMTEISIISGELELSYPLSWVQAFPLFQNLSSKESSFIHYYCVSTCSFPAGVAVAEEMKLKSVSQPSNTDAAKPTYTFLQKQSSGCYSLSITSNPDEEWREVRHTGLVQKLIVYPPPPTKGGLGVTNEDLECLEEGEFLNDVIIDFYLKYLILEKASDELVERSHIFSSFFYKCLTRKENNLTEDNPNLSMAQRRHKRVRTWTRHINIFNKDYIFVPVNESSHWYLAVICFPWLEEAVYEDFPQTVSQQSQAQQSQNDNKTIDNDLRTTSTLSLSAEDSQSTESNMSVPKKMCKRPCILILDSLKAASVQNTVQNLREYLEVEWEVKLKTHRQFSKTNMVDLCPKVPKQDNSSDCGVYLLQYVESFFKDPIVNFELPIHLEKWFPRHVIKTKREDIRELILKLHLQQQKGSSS
# UniProt P31040: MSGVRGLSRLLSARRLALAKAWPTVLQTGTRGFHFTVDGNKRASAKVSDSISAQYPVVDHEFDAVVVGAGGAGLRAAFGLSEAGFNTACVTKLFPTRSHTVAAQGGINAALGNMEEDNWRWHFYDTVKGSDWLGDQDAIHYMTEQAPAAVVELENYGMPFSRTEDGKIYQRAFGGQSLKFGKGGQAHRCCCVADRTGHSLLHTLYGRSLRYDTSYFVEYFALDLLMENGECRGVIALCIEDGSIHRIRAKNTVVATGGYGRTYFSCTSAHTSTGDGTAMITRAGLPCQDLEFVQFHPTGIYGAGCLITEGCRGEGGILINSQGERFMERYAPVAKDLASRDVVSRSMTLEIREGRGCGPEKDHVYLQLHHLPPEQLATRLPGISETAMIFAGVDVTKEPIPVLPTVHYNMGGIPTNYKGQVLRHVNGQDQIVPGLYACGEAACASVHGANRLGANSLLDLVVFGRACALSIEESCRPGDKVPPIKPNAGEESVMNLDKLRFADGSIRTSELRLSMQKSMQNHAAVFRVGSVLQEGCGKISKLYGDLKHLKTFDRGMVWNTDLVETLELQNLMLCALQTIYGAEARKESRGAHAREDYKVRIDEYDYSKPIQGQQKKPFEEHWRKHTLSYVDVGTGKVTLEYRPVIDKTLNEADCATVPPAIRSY
# The other results are listed elsewhere or left out. The data scatter; read single values as rough.
# Legend:
# [1] = compound: ClCC(=O)N[C@@H]1CCCc2ccccc12; test: log2 mean competition ratio of IA-DTB cysteine labelling (DMSO/compound) (log2 ratio); higher = stronger cysteine engagement by compound; conditions: treatment time: 4 h, cell line lysate: HEK293T
# Description: (§1)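 IA-DTB competitive cysteine chemoproteomics in HEK293T RIPA lysate. Lysates were treated with compound 29 or 30 at 50 or 200 µM for 4 h, then IA-DTB (500 µM, 1 h), trypsin-digested, NeutrAvidin-enriched and analysed by diaPASEF. Competition ratio = intensity DMSO / intensity compound (n=4 treated, n=64 DMSO); binding: mean log2 CR ≥ 1 and p ≤ 0.05 plus QC filters. Target is the cysteine site.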
# [2] = compound: ClCC(=O)N[C@H]1CCCc2ccccc12; test: as above; conditions: treatment time: 4 h, cell line lysate: HEK293T
# Description: as §1
Target,log2 mean competition ratio ([1]; 50 µM),log2 mean competition ratio ([1]; 200 µM),log2 mean competition ratio ([2]; 50 µM),log2 mean competition ratio ([2]; 200 µM)
SCFD2 C54 (UniProt Q8WU76),0.26,0.045,0.155,-0.0203
SIN3B C249 (UniProt O75182),0.399,0.044,0.174,-0.0592
SESTD1 C363 (UniProt Q86VW0),0.304,0.101,0.281,0.221
SH3BP1 C388 (UniProt Q9Y3L3),-0.282,0.0863,-0.518,-0.153
SHC1 C416 (UniProt P29353),0.000633,-0.161,-0.302,0.00835
SDE2 C298 (UniProt Q6IQ49),0.0323,0.31,-0.336,0.0988
SDSL C38 (UniProt Q96GA7),0.0276,0.157,0.0135,0.152
SCAF1 C999 (UniProt Q9H7N4),-0.222,0.219,-0.241,0.202
SETD2 C849 (UniProt Q9BYW2),-0.591,0.00807,-0.0923,-0.308
SH3BP4 C415 (UniProt Q9P0V3),0.066,0.16,0.364,0.105
SETX C2618 (UniProt Q7Z333),0.0212,0.184,-0.452,-0.242
SEC13 C31 (UniProt P55735),-0.473,0.0898,-0.552,0.00717
SENP2 C202 (UniProt Q9HC62),0.197,-0.0367,0.36,0.0192
SHB C215 (UniProt Q15464),0.000597,0.0341,0.227,0.287
SF3A3 C274 (UniProt Q12874),0.262,-0.0777,0.199,-0.18
SCYL2 C511 (UniProt Q6P3W7),0.0525,-0.0288,0.195,-0.0333
SHROOM3 C508,0.207,0.218,0.0263,0.232
SENP8 C64 (UniProt Q96LD8),0.132,-0.0883,0.152,-0.0455
SAMM50 C457 (UniProt Q9Y512),0.31,-0.0574,-0.0583,-0.0809
SENP7 C274 (UniProt Q9BQF6),-0.134,-0.0887,-0.17,-0.0221
SDHA C536 (UniProt P31040),-0.251,-0.0396,-0.00731,-0.0317
SCAF1 C362 (UniProt Q9H7N4),-0.225,0.17,-0.129,0.172
SH3RF3 C497,-0.131,0.0544,-0.358,0.566
SIPA1L3 C407,-0.121,0.226,-0.41,0.144

# Just log2 mean competition ratio ([2]; 50 µM), for some of the entries so far:
Target | log2 mean competition ratio ([2]; 50 µM)
SEC13 C31 (UniProt P55735) | -0.552
SENP2 C202 (UniProt Q9HC62) | 0.36
